Experimental data reported in the supplement of paper PMC10849652.
The other results are listed elsewhere or left out.

The chains behind the UniProt entries cited, without tags or fusion partners. Where a name states a change or a piece, a line headed by the entry shows the natural chain unless it says otherwise.
UniProt P37287: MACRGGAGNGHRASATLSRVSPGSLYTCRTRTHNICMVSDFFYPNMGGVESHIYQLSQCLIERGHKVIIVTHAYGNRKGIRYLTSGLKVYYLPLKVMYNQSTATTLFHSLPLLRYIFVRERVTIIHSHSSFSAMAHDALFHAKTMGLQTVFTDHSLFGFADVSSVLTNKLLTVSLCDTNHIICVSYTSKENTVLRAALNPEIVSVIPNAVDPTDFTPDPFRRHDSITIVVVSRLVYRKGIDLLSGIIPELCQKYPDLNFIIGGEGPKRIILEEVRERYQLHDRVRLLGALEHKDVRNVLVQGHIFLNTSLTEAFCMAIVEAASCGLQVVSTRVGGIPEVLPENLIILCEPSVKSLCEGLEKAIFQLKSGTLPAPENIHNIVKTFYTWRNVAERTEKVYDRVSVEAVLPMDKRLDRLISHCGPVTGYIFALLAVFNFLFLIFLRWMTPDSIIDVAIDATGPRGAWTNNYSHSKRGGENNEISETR
UniProt O15067: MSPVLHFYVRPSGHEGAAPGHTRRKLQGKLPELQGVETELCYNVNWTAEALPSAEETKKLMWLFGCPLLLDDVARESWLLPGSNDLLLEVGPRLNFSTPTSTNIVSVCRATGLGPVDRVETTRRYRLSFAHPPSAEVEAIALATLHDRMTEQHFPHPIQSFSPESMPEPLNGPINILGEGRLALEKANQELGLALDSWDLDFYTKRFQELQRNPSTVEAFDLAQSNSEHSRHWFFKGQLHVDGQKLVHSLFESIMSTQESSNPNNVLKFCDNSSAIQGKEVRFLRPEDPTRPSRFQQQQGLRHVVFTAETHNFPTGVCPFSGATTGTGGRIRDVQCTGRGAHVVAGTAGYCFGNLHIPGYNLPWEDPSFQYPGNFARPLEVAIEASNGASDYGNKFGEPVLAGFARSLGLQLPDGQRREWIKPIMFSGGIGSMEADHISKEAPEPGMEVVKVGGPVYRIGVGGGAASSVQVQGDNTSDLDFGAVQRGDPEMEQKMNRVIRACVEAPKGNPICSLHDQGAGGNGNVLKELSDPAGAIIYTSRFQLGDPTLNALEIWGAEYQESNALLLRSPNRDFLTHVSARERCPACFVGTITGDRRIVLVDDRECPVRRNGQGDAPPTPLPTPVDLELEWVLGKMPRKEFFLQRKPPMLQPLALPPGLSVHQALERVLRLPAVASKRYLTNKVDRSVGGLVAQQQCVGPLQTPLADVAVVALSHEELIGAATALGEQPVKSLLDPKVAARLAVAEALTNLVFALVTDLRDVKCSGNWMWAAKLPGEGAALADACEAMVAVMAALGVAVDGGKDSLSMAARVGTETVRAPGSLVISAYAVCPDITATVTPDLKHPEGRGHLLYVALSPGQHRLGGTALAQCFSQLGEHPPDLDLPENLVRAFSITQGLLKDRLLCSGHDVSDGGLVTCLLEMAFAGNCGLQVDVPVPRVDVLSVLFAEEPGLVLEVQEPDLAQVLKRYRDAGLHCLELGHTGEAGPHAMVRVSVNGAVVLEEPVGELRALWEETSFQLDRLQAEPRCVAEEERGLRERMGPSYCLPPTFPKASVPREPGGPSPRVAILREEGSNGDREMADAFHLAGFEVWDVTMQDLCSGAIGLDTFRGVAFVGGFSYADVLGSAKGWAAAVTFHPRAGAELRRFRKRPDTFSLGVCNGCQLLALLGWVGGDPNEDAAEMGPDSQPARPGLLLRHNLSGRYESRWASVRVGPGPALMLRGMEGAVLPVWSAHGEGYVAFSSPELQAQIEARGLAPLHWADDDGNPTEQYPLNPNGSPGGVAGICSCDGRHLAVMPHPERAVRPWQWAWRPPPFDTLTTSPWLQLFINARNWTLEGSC
UniProt Q9NQP4, whole entry, looked up: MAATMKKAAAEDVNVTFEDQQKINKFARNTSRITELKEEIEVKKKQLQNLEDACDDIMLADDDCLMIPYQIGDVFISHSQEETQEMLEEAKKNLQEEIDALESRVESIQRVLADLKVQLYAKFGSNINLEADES
UniProt Q96BK5: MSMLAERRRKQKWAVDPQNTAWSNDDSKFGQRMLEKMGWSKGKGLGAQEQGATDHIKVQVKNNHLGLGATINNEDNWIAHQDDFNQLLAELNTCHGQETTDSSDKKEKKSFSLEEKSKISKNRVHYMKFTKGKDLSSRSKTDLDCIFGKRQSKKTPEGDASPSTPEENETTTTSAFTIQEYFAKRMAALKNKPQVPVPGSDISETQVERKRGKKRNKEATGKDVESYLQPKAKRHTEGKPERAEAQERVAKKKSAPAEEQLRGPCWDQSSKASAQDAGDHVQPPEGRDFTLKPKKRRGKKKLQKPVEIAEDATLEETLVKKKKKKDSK
UniProt P53609, whole entry, looked up: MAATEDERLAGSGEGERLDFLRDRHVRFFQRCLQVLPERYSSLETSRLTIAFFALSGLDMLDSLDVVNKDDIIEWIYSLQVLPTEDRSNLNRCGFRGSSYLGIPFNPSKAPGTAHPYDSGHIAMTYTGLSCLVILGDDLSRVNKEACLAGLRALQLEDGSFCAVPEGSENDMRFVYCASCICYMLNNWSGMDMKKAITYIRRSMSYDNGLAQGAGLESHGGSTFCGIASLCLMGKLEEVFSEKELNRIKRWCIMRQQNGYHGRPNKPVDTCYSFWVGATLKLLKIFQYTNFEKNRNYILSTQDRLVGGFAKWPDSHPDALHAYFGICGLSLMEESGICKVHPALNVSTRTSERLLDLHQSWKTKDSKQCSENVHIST
UniProt Q8TCG2: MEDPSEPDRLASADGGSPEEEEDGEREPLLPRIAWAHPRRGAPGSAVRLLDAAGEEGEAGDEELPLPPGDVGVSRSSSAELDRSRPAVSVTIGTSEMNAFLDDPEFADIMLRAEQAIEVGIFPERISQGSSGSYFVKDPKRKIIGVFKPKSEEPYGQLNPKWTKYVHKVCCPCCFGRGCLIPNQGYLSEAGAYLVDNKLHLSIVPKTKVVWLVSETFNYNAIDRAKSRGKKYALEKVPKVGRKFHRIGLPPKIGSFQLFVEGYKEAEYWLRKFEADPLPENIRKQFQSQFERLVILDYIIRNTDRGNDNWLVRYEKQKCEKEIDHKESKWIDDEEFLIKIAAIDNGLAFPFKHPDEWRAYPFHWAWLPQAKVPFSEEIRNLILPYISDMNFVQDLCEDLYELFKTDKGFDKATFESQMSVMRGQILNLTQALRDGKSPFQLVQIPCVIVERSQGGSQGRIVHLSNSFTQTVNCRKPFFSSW
UniProt Q9BTU6: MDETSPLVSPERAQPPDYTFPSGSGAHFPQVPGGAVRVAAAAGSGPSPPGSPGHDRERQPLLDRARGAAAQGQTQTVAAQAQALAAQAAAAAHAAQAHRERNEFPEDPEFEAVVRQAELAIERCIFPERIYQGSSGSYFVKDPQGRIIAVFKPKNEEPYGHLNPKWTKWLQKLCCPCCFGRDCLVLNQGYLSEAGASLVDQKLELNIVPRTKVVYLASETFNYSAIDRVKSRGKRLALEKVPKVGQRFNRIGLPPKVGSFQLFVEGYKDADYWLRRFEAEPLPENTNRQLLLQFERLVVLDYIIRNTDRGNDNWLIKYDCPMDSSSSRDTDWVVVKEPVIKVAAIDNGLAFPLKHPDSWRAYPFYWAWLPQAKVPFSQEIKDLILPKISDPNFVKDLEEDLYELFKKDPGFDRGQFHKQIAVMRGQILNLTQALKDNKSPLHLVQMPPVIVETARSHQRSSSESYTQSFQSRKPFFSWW
UniProt Q6P4A8: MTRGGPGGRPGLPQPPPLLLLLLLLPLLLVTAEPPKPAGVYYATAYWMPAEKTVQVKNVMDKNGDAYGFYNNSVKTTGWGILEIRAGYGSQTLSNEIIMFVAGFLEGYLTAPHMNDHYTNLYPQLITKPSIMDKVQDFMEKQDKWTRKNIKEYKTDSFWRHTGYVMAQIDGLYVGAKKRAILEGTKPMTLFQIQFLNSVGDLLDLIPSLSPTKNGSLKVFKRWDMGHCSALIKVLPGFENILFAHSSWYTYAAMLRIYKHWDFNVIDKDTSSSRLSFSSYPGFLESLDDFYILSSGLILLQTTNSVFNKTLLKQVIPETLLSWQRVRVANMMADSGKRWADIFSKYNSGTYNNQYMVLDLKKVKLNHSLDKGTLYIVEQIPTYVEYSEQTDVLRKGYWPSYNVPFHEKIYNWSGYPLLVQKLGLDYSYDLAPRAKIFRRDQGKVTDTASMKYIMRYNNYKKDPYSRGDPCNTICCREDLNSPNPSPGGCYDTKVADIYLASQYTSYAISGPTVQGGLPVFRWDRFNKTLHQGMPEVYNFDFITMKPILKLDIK
UniProt Q9NXJ5: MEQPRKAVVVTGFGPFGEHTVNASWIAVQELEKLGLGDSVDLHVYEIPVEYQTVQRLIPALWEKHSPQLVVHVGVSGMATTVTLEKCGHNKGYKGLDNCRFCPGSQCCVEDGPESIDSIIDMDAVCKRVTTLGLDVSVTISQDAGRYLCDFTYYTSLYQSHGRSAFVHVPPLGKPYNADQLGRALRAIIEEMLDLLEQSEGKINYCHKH
UniProt P07205: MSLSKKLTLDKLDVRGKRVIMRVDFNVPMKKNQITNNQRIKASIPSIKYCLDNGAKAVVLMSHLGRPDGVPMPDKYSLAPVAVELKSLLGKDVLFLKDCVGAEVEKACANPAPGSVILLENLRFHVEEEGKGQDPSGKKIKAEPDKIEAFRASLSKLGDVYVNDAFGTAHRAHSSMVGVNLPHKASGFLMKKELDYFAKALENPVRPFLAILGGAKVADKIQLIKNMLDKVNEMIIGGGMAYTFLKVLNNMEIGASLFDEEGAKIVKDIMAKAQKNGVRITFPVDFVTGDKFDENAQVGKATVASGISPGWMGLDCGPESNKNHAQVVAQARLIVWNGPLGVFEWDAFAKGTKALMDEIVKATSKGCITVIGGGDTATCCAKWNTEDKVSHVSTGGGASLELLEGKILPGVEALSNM
UniProt Q8NEB9, whole entry, looked up: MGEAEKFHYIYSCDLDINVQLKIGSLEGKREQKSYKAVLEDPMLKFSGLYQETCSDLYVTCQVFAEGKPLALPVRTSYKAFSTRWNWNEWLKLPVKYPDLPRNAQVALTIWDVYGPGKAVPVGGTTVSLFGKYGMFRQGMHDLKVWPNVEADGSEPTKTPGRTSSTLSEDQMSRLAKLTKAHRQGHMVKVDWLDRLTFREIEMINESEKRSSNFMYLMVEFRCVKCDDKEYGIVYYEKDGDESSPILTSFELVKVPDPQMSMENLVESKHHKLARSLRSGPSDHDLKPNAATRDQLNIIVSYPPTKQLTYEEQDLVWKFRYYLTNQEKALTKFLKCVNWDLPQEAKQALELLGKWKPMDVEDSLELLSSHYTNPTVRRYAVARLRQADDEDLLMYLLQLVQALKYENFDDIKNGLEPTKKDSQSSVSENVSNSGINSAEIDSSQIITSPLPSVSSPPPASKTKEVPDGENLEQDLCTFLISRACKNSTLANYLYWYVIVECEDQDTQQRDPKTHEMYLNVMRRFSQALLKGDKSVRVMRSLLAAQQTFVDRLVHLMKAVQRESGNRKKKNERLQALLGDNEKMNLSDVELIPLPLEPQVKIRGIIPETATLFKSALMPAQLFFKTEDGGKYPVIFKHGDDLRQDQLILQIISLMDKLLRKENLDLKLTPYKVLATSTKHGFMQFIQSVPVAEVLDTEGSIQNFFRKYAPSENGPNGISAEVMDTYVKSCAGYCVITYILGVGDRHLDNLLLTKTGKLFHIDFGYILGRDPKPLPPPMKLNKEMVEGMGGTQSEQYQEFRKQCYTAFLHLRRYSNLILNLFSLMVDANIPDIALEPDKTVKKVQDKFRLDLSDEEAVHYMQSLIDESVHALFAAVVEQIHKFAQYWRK
UniProt P56589: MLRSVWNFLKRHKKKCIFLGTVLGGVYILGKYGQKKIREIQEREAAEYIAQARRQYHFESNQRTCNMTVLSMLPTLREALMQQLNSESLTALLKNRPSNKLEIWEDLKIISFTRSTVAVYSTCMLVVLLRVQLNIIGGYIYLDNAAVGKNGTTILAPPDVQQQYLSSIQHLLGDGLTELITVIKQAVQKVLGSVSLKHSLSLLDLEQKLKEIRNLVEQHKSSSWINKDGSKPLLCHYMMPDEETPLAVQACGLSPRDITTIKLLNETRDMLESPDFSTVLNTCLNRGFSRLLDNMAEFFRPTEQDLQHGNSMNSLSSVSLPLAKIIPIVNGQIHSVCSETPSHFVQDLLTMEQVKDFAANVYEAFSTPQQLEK
UniProt Q16875: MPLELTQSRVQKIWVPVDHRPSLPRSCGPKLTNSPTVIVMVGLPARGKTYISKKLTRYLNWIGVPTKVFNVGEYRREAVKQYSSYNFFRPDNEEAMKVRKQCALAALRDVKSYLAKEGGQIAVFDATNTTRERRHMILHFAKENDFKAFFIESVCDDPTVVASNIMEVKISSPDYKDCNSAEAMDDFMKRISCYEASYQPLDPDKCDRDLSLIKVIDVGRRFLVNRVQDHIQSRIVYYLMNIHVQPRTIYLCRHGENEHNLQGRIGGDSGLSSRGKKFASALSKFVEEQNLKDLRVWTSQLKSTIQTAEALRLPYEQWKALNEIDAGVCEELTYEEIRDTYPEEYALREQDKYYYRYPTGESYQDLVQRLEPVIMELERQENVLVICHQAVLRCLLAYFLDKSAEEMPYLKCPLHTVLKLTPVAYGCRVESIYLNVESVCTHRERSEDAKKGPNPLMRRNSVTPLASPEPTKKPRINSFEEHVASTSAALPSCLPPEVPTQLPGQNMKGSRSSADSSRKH

Columns and labels:
Assay in all cases: log2 fold change, soluble protein after heating vs DMSO (PISA); higher = thermal stabilisation; K562 cells, 10 uM, 30 min; active = over 0.2 and 3.5 SD of the protein, either way, in both replicates (recomputed)
[1] = compound: NC(=O)Nc1cc(-c2cccc(F)c2)sc1C(=O)N[C@H]1CCCNC1
Outline: (§1)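 K562 cells at 2×10^6 cells/mL were treated with 10 μM compound for 30 min. Aliquots were heated for 3 min across 48°C-58°C, pooled, and extracted in PBS with 0.5% NP-40 at 4°C; soluble protein was the supernatant after 21,000xg for 90 min. Soluble protein was quantified by TMTpro 16plex LC-MS/MS with channel sums equalised, and reported as log2 fold change in thermal stability against DMSO controls, with values from duplicates.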

[2] = compound: NC(=O)c1cnc(N[C@@H]2CCCC[C@@H]2N)nc1Nc1cccc(-n2nccn2)c1
Outline: as §1

[3] = compound: NC1(c2ccc(-c3nc4ccn5c(=O)[nH]nc5c4cc3-c3ccccc3)cc2)CCC1
Outline: as §1

[4] = compound: NCC(=O)Nc1ccc(-n2nc(C(F)(F)F)cc2-c2ccc3c(ccc4ccccc43)c2)cc1
Outline: as §1

entinostat = compound: Nc1ccccc1NC(=O)c1ccc(CNC(=O)OCc2cccnc2)cc1 [entinostat]
Outline: as §1

vorinostat = compound: O=C(CCCCCCC(=O)Nc1ccccc1)NO [vorinostat]
Outline: as §1

citarinostat = compound: O=C(CCCCCCNC(=O)c1cnc(N(c2ccccc2)c2ccccc2Cl)nc1)NO [citarinostat]
Outline: as §1

silmitasertib = compound: O=C(O)c1ccc2c(c1)nc(Nc1cccc(Cl)c1)c1ccncc12 [silmitasertib]
Outline: as §1

[5] = compound: O=C1NC(=O)C(c2cnc3ccccn23)=C1c1cn2c3c(cc(F)cc13)CN(C(=O)N1CCCCC1)CC2
Outline: as §1

[6] = compound: c1cc(OCCN2CCCCC2)cc(-c2n[nH]c3ccc(-c4nnc[nH]4)cc23)c1
Outline: as §1

Row | Target | log2 fold change [1] | log2 fold change [2] | log2 fold change [3] | log2 fold change [4] | log2 fold change (entinostat) | log2 fold change (vorinostat) | log2 fold change (citarinostat) | log2 fold change (silmitasertib) | log2 fold change [5] | log2 fold change [6]
1 | PIGA (UniProt P37287) | inactive: 0.063 | inactive: 0.099 | inactive: -0.066 | inactive: -0.046 | inactive: -0.067 | inactive: -0.085 | inactive: 0 | inactive: 0.029 | inactive: -0.065 | inactive: -0.049
2 | PHAX (UniProt Q9H814) | inactive: 0.008 | inactive: -0.084 | inactive: -0.003 | inactive: 0.013 | inactive: -0.022 | inactive: -0.006 | inactive: 0.041 | inactive: 0.092 | inactive: 0.046 | inactive: -0.029
3 | PFAS (UniProt O15067) | inactive: 0.06 | inactive: -0.075 | inactive: -0.012 | inactive: -0.054 | inactive: 0.134 | inactive: 0.042 | inactive: 0.049 | inactive: -0.119 | inactive: -0.052 | inactive: 0.142
4 | PLA2G4B isoform 6 (UniProt P0C869) | inactive: 0.056 | inactive: -0.088 | inactive: 0.093 | inactive: 0.015 | inactive: 0.037 | inactive: 0.06 | – | inactive: 0.026 | – | –
5 | PFDN4 (UniProt Q9NQP4) | inactive: 0.001 | inactive: 0.012 | inactive: 0.108 | inactive: 0.054 | inactive: -0.003 | inactive: -0.074 | inactive: -0.079 | inactive: -0.034 | inactive: -0.05 | inactive: -0.012
6 | PEX6 (UniProt Q13608) | inactive: -0.01 | inactive: -0.025 | inactive: -0.025 | inactive: 0.044 | inactive: 0.01 | inactive: 0.033 | inactive: 0 | inactive: 0.006 | inactive: -0.062 | inactive: -0.04
7 | PIGX isoform 2 (UniProt Q8TBF5) | inactive: 0.06 | – | inactive: 0.1 | inactive: 0.045 | inactive: 0.127 | inactive: -0.05 | inactive: 0.009 | inactive: 0.051 | inactive: 0.092 | inactive: 0.052
8 | PLCD1 isoform 2 (UniProt P51178) | inactive: 0.02 | inactive: -0.116 | inactive: -0.168 | inactive: -0.003 | inactive: 0.063 | inactive: 0.118 | inactive: 0.006 | inactive: -0.082 | inactive: -0.014 | inactive: -0.039
9 | PINX1 (UniProt Q96BK5) | inactive: 0.016 | inactive: 0.185 | inactive: 0.385 | inactive: 0.246 | inactive: 0.046 | inactive: -0.151 | – | inactive: 0.384 | inactive: 0.021 | –
10 | PFKFB4 (UniProt Q16877) | inactive: -0.049 | inactive: 0.028 | inactive: -0.079 | inactive: -0.073 | inactive: -0.022 | inactive: 0.009 | inactive: 0.043 | inactive: 0.012 | inactive: -0.013 | inactive: -0.033
11 | PGM3 isoform 4 (UniProt O95394) | inactive: -0.039 | inactive: -0.118 | inactive: -0.147 | inactive: -0.063 | inactive: 0.015 | inactive: 0.061 | inactive: 0.046 | inactive: -0.012 | inactive: -0.008 | inactive: -0.024
12 | PGGT1B (UniProt P53609) | inactive: -0.048 | inactive: -0.014 | inactive: -0.062 | inactive: -0.021 | inactive: -0.047 | inactive: -0.046 | inactive: 0.038 | inactive: 0.021 | inactive: 0.02 | inactive: -0.042
13 | PEX5 isoform 4 (UniProt P50542) | inactive: 0.019 | inactive: 0.002 | – | inactive: 0.041 | inactive: 0 | – | – | – | inactive: 0.163 | –
14 | PI4K2B (UniProt Q8TCG2) | inactive: 0.092 | active: 0.704 | inactive: -0.08 | inactive: -0.069 | inactive: 0.066 | inactive: -0.021 | inactive: 0.075 | inactive: 0.051 | – | inactive: 0.111
15 | PI4K2A (UniProt Q9BTU6) | inactive: 0.033 | inactive: 0.204 | inactive: -0.152 | inactive: -0.05 | inactive: -0.013 | inactive: 0.039 | inactive: 0.072 | inactive: -0.012 | inactive: -0.05 | inactive: 0.003
16 | PLBD1 (UniProt Q6P4A8) | inactive: 0.008 | inactive: -0.061 | inactive: -0.076 | inactive: -0.039 | inactive: 0.008 | inactive: -0.038 | inactive: -0.018 | inactive: 0.003 | inactive: -0.027 | inactive: 0.409

Row | Target | log2 fold change [1] | log2 fold change [2] | log2 fold change [3] | log2 fold change [4] | log2 fold change (entinostat) | log2 fold change (vorinostat) | log2 fold change (citarinostat) | log2 fold change (silmitasertib) | log2 fold change [5] | log2 fold change [6]
17 | PIK3CD (UniProt O00329) | inactive: 0.086 | inactive: 0.014 | – | inactive: -0.047 | inactive: -0.008 | – | inactive: -0.285 | – | inactive: -0.092 | inactive: 0.143
18 | PKN1 isoform 2 (UniProt Q16512) | active: -0.508 | inactive: -0.141 | inactive: -0.118 | inactive: -0.128 | inactive: 0.039 | inactive: 0.042 | inactive: 0.024 | inactive: 0.024 | inactive: -0.131 | inactive: -0.157
19 | PIK3CA (UniProt P42336) | inactive: 0.109 | inactive: -0.031 | inactive: 0 | – | inactive: 0.05 | – | – | inactive: 0.053 | inactive: 0.102 | –
20 | PGPEP1 (UniProt Q9NXJ5) | inactive: 0.017 | inactive: -0.048 | inactive: -0.275 | inactive: 0.2 | inactive: -0.029 | – | inactive: -0.12 | inactive: 0.115 | inactive: 0.067 | inactive: -0.263
21 | PGLS (UniProt O95336) | inactive: 0.065 | inactive: 0.143 | inactive: 0 | inactive: 0.098 | inactive: 0.003 | inactive: -0.089 | inactive: -0.019 | inactive: -0.025 | inactive: -0.095 | inactive: -0.025
22 | PGK2 (UniProt P07205) | inactive: -0.056 | inactive: -0.032 | inactive: -0.038 | inactive: -0.134 | inactive: 0.021 | inactive: -0.056 | inactive: -0.121 | inactive: 0.172 | active: -0.532 | inactive: -0.012
23 | PIGU (UniProt Q9H490) | inactive: 0.022 | inactive: 0.061 | inactive: -0.164 | inactive: 0.027 | inactive: -0.019 | inactive: 0.141 | inactive: 0.01 | inactive: -0.007 | inactive: 0.026 | inactive: 0.059
24 | PIK3C3 (UniProt Q8NEB9) | inactive: 0.068 | inactive: 0.117 | inactive: -0.018 | inactive: -0.015 | inactive: -0.03 | inactive: -0.038 | inactive: -0.038 | inactive: 0.051 | inactive: 0.078 | inactive: -0.041
25 | PEX3 (UniProt P56589) | inactive: 0.025 | inactive: 0.104 | inactive: -0.094 | inactive: 0.082 | inactive: -0.229 | – | inactive: 0.033 | inactive: -0.025 | inactive: 0.115 | inactive: -0.114
26 | PGM2L1 (UniProt Q6PCE3) | inactive: -0.003 | inactive: 0 | inactive: -0.071 | inactive: 0.004 | inactive: -0.029 | inactive: 0.002 | inactive: -0.012 | inactive: 0.011 | inactive: -0.045 | inactive: -0.001
27 | PFKFB3 isoform 4 (UniProt Q16875) | inactive: 0.068 | inactive: 0.024 | inactive: -0.075 | inactive: 0.017 | inactive: 0.046 | inactive: 0.025 | inactive: 0.107 | inactive: -0.055 | inactive: -0.03 | inactive: -0.027
28 | PLA2G12A (UniProt Q9BZM1) | inactive: -0.014 | inactive: -0.149 | inactive: -0.154 | – | inactive: 0.165 | inactive: -0.004 | inactive: 0.188 | inactive: 0.114 | inactive: -0.137 | inactive: -0.142
29 | PLCG1 isoform 2 (UniProt P19174) | inactive: 0.01 | inactive: -0.193 | inactive: -0.197 | inactive: -0.109 | inactive: 0.04 | inactive: -0.003 | inactive: 0.059 | inactive: 0.01 | inactive: 0 | inactive: -0.066
30 | PFN1 (UniProt I3L3D5) | inactive: -0.225 | inactive: -0.3 | inactive: -0.026 | – | inactive: -0.137 | inactive: -0.204 | inactive: -0.164 | inactive: 0.105 | inactive: -0.286 | inactive: -0.135
31 | PIK3R2 (UniProt O00459) | inactive: -0.01 | inactive: -0.05 | inactive: 0.027 | inactive: 0.032 | inactive: 0.099 | inactive: -0.051 | inactive: 0.14 | inactive: 0.031 | inactive: 0.016 | inactive: -0.048

2 entries from above, set out differently.

| Row | Target | log2 fold change [1] | log2 fold change [2] | log2 fold change [3] | log2 fold change [4] | log2 fold change (entinostat) | log2 fold change (vorinostat) | log2 fold change (citarinostat) | log2 fold change (silmitasertib) | log2 fold change [5] | log2 fold change [6] |
| --- | --- | --- | --- | --- | --- | --- | --- | --- | --- | --- | --- |
| 11 | PGM3 isoform 4 (UniProt O95394) | inactive: -0.039 | inactive: -0.118 | inactive: -0.147 | inactive: -0.063 | inactive: 0.015 | inactive: 0.061 | inactive: 0.046 | inactive: -0.012 | inactive: -0.008 | inactive: -0.024 |
| 12 | PGGT1B (UniProt P53609) | inactive: -0.048 | inactive: -0.014 | inactive: -0.062 | inactive: -0.021 | inactive: -0.047 | inactive: -0.046 | inactive: 0.038 | inactive: 0.021 | inactive: 0.02 | inactive: -0.042 |
